Results are given in words; binding and its absence hold for the method and conditions named. Some results given as binding are weak or reduced against the parent protein; the word gives no strength.

By UniProt entry, the sequences of proteins in these tests, tags left out. Where a name states a change or a piece, a line headed by the entry shows the natural chain unless it says otherwise.
UniProt Q9MZI6: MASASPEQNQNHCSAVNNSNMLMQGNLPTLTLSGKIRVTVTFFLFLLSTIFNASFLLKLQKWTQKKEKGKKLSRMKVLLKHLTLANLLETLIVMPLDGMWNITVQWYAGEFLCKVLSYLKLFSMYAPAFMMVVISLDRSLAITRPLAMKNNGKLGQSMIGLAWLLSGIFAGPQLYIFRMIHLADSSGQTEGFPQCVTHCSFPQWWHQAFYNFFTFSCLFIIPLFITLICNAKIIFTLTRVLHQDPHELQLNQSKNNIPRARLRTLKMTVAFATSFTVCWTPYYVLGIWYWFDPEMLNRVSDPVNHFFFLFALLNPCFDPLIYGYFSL

Drawing on US20240199754A1 (VANCOUVER BIOTECH LTD., priority 2021, published 2024), this text covers binding for one molecule.

The target in this test is T1, N1-29 synthetic oligopeptide of dog GnRH receptor (dog) (UniProt Q9MZI6).
T1 sequence (peptide): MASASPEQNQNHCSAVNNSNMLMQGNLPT
Kind of test: ELISA on well-coated N1-29 peptide, goat anti-human IgG-alkaline phosphatase, OD 405 nm.

B1: GHR-106(hIgG4), humanized IgG4 GHR-106 monoclonal antibody (antibody, V domains shown)
VH: QVQLQESGPGLVKPSETLSLTCTVSGFSLSRYSVHWIRQPPGKGLEWIGMIWGGGSTDYNPSLKSRVTISKDNSKSQVFLKMSSVTAADTAMYYCARGNDGYYSFAYWGQGTLVTVSS
VL: DIVMTQSPDSLAVSLGERATINCKSSQSLLNSRTRKNYLAWYQQKPGQSPKLLIYWASTRESGVPDRFSGSGSGTDFTLTISSLQAEDVAVYYCKQSYNLYTFGQGTKLEIKR
notes: Humanized IgG4
Take B1: the binding result is given as “binds”.
